# Assay results published in the supplement of paper PMC10849652.
# By UniProt entry, the sequences of proteins in these tests, tags left out. Where a name states a change or a piece, a line headed by the entry shows the natural chain unless it says otherwise.
# UniProt Q9NTJ4: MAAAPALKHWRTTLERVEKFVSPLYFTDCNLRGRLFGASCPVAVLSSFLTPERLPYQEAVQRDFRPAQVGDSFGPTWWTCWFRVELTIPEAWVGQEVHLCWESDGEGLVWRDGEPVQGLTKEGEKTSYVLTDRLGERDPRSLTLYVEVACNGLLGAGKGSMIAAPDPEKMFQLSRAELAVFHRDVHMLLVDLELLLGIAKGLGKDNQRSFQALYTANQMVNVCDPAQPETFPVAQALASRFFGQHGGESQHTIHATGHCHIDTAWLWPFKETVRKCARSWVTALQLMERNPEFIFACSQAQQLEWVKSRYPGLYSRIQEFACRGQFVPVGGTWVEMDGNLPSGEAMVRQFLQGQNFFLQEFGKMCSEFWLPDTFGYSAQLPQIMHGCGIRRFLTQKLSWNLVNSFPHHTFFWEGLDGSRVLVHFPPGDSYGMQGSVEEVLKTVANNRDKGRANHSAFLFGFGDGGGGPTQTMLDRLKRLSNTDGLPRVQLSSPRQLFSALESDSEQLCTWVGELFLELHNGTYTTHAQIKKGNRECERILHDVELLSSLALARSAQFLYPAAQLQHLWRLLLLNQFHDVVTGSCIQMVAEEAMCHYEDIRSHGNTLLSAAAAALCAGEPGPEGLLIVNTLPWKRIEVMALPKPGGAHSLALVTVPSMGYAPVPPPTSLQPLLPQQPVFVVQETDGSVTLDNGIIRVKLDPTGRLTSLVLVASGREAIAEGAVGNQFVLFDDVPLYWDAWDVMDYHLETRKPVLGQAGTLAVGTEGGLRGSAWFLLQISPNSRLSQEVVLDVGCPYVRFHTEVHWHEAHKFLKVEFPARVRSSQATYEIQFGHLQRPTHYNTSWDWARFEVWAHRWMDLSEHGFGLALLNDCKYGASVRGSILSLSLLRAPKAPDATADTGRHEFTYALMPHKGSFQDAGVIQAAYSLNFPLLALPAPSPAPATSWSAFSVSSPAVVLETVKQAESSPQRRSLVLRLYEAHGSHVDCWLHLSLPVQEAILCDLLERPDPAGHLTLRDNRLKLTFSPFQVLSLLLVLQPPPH
# UniProt Q96S90: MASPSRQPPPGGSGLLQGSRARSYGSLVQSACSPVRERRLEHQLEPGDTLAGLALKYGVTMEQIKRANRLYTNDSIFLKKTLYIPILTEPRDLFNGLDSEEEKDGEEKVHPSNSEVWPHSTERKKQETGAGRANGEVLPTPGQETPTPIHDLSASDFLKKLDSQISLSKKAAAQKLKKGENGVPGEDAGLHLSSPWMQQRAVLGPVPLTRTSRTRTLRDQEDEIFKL
# UniProt Q66K74: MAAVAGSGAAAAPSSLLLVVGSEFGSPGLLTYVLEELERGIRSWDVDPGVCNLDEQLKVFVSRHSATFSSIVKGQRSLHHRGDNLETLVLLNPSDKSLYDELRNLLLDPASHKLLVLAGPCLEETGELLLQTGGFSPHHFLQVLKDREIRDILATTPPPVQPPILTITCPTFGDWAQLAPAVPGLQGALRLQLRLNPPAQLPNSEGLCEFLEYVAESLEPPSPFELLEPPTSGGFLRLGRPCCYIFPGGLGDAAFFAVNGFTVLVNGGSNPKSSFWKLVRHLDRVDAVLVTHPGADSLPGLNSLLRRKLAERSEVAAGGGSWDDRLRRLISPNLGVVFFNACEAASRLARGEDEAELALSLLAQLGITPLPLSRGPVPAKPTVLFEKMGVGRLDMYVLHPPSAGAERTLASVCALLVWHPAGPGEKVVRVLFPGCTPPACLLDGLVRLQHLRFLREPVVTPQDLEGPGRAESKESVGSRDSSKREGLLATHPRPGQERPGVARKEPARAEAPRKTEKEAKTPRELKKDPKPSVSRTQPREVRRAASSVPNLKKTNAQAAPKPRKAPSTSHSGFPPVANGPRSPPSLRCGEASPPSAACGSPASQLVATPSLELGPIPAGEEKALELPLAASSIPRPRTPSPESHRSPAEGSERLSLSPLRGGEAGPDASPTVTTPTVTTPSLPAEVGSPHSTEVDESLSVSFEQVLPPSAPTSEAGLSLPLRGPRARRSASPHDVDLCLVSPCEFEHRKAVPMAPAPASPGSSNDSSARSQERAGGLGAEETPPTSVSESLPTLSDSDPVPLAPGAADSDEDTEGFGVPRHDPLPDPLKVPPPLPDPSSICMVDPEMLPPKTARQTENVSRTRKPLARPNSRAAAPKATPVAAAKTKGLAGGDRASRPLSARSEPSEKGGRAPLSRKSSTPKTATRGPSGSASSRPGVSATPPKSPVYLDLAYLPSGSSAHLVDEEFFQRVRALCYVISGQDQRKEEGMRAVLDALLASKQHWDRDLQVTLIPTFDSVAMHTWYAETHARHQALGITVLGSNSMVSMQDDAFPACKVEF
# UniProt Q8WXG6, whole entry, looked up: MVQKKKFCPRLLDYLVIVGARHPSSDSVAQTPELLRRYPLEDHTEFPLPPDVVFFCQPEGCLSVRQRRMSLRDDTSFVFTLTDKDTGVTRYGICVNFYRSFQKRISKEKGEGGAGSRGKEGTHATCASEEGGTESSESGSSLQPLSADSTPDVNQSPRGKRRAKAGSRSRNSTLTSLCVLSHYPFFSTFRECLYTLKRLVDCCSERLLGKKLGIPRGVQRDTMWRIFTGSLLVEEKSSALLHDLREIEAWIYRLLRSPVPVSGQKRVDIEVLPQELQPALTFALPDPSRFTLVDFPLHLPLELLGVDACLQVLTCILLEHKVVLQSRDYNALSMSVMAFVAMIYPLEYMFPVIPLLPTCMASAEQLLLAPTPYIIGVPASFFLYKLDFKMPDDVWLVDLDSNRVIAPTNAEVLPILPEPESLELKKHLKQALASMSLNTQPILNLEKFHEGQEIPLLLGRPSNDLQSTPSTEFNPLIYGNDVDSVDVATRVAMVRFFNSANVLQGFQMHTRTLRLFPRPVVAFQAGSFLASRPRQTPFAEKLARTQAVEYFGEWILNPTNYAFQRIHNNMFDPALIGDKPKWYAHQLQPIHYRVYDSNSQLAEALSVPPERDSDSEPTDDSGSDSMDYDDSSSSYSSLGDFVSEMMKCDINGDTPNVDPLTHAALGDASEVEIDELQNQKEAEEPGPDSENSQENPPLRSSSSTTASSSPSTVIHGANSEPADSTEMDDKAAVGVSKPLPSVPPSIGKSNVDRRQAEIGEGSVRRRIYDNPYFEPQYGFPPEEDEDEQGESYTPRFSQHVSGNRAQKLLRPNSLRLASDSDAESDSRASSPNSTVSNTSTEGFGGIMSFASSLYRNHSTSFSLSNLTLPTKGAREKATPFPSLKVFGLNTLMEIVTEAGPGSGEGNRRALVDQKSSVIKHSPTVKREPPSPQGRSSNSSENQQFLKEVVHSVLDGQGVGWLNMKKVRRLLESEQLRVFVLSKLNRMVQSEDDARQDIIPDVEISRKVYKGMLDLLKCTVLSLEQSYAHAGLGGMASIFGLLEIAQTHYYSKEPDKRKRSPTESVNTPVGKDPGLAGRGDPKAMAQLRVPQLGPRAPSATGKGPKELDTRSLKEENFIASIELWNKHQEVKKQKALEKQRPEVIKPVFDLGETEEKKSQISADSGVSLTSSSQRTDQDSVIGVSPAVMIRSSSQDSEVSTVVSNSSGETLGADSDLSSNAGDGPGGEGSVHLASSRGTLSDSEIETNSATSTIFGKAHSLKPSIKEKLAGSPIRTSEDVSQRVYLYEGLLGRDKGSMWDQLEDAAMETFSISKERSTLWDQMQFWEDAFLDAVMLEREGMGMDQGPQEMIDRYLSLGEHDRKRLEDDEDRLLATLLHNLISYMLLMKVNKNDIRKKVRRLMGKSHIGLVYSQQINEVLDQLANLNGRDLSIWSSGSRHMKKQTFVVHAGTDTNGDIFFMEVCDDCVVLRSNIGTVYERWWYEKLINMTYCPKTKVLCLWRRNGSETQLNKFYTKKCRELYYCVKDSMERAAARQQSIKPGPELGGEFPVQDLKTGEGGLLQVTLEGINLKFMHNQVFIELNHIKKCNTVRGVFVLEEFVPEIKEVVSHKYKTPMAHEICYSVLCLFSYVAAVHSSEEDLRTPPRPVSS
# UniProt O75608: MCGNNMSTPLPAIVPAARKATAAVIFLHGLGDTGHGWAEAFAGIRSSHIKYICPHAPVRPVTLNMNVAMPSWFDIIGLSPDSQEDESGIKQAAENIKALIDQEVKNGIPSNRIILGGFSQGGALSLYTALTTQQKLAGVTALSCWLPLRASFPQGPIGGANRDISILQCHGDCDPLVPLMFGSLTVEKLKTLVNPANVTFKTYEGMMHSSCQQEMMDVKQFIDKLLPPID
# UniProt O15525: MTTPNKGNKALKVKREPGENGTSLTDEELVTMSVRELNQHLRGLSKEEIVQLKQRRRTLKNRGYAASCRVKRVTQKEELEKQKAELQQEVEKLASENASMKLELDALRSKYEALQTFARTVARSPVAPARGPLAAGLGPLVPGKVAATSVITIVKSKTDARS
# UniProt Q5TCQ9: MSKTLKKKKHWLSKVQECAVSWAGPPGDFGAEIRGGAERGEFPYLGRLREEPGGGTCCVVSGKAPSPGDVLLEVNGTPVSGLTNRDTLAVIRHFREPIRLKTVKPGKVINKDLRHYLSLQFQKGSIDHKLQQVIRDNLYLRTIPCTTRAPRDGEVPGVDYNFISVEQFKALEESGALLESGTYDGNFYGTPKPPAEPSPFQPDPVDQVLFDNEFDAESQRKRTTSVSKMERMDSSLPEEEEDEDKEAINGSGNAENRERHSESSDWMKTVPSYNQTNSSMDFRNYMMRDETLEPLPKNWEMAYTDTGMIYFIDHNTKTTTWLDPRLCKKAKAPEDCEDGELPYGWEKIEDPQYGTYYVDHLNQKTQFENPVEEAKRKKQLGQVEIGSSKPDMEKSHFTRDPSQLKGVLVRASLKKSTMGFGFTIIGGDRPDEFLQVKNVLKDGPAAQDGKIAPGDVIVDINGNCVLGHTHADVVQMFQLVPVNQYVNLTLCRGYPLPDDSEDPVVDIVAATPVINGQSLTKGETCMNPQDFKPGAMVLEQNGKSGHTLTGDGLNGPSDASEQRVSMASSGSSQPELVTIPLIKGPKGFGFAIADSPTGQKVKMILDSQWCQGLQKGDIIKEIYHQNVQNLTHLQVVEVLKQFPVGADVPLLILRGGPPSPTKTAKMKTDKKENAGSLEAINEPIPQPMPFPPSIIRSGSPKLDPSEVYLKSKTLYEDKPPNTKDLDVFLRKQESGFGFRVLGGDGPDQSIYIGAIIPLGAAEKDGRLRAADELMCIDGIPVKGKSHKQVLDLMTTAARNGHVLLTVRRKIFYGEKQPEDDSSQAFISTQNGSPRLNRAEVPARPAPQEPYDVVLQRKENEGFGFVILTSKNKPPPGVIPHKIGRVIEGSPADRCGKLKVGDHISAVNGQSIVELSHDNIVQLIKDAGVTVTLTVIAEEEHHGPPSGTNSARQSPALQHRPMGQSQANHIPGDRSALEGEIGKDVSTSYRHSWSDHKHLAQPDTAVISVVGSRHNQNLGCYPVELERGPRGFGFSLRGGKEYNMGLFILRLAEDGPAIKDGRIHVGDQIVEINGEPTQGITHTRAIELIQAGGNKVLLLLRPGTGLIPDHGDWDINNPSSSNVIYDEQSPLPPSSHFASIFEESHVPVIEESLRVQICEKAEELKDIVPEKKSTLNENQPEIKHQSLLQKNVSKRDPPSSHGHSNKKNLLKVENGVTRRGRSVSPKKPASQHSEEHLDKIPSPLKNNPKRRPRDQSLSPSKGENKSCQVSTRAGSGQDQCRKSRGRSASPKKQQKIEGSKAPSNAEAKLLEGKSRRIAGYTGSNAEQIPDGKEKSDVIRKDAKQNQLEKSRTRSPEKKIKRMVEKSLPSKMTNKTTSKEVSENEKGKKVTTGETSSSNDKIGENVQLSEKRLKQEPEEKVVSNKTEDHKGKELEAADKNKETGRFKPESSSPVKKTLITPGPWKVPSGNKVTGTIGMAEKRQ
# UniProt P43355: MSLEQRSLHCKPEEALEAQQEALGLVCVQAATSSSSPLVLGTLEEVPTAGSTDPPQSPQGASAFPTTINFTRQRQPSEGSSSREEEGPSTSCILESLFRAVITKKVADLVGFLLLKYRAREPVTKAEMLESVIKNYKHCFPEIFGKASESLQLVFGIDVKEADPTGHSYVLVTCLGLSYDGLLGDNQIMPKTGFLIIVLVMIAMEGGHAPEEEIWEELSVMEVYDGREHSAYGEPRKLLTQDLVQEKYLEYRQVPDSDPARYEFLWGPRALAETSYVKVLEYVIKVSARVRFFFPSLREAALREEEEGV
# UniProt Q16553: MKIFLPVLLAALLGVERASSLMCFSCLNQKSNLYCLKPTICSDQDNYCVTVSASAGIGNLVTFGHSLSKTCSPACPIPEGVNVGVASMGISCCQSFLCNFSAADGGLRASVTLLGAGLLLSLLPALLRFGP
# UniProt P43357, whole entry, looked up: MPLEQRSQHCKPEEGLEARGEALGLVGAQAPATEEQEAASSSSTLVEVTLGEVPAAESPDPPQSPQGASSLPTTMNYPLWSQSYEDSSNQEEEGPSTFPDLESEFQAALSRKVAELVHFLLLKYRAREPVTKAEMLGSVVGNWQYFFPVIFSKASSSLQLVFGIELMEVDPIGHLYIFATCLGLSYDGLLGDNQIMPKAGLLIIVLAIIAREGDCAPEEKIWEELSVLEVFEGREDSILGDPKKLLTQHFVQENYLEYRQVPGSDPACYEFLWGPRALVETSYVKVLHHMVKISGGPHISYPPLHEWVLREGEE
# This is one part of the list.
# Experiments:
# Experiment in all cases: log2 fold change, soluble protein after heating vs DMSO (PISA); higher = thermal stabilisation; K562 lysate, 10 uM; active = over 0.2 and 3.5 SD of the protein, either way, in both replicates (recomputed)
# [1] = compound: NCC(=O)Nc1ccc(-n2nc(C(F)(F)F)cc2-c2ccc3c(ccc4ccccc43)c2)cc1
# Procedure, shortened: (§1)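 A 30 min treatment with 10 μM compound was applied to crude K562 extract at 1 mg/mL protein in PBS pH 7.4 with 1 mM MgCl2. Heating for 3 min spanned 48°C-58°C, after which aliquots were pooled, adjusted to 0.5% NP-40 at 4°C and spun at 21,000xg for 90 min. TMTpro 16plex LC-MS/MS of the supernatant, with channel sums equalised, gave values recorded as log-two fold change in thermal stability against solvent controls, from duplicates.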
# vorinostat = compound: O=C(CCCCCCC(=O)Nc1ccccc1)NO [vorinostat]
# Procedure, shortened: as §1
# silmitasertib = compound: O=C(O)c1ccc2c(c1)nc(Nc1cccc(Cl)c1)c1ccncc12 [silmitasertib]
# Procedure, shortened: as §1
# [2] = compound: O=C1NC(=O)C(c2cnc3ccccn23)=C1c1cn2c3c(cc(F)cc13)CN(C(=O)N1CCCCC1)CC2
# Procedure, shortened: as §1
# entospletinib = compound: c1cn2cc(-c3ccc4cn[nH]c4c3)nc(Nc3ccc(N4CCOCC4)cc3)c2n1 [entospletinib]
# Procedure, shortened: as §1
Target,log2 fold change [1],log2 fold change (vorinostat),log2 fold change (silmitasertib),log2 fold change [2],log2 fold change (entospletinib)
MAN2C1 isoform 4 (UniProt Q9NTJ4),inactive: 0.045,inactive: 0.003,inactive: -0.04,inactive: -0.008,inactive: 0.015
LYSMD1 (UniProt Q96S90),inactive: 0.029,inactive: 0.072,inactive: -0.026,inactive: -0.007,inactive: 0
MAP3K4 (UniProt Q9Y6R4),inactive: -0.025,active: -0.524,inactive: 0.229,inactive: -0.025,inactive: -0.045
MAPK8IP3 (UniProt Q9UPT6),inactive: -0.041,inactive: 0.06,inactive: 0.026,inactive: -0.044,inactive: 0.011
MAP3K3 isoform 2 (UniProt Q99759),inactive: 0.116,inactive: -0.011,inactive: -0.142,inactive: -0.035,inactive: 0.066
MAP4 (UniProt E7EVA0),inactive: -0.044,inactive: 0.025,inactive: 0.028,inactive: 0.079,inactive: -0.025
MAPK9 (UniProt P45984),inactive: -0.008,inactive: -0.129,inactive: 0.037,inactive: -0.004,inactive: 0
MAN1A2 (UniProt O60476),inactive: 0.001,inactive: 0.107,inactive: 0.01,inactive: -0.004,inactive: -0.038
MAP1S (UniProt Q66K74),inactive: 0.006,active: -0.242,inactive: -0.004,inactive: -0.025,inactive: 0.01
MAP4 isoform 5 (UniProt P27816),inactive: 0.001,inactive: 0.359,inactive: 0.074,inactive: 0.087,inactive: 0.063
MAPK6 (UniProt Q16659),inactive: -0.04,inactive: -0.033,inactive: 0.033,inactive: 0.035,inactive: 0.024
MARCHF6 (UniProt O60337),inactive: 0,inactive: 0.057,inactive: -0.037,inactive: -0.06,inactive: -0.028
"MACF1, A0A0A6YYJ5",inactive: -0.196,inactive: -0.061,inactive: -0.008,inactive: -0.002,inactive: -0.035
MAGEB1 (UniProt P43366),inactive: 0.017,inactive: -0.021,inactive: 0.032,inactive: -0.006,inactive: 0.034
MAML2 (UniProt Q8IZL2),inactive: 0.078,inactive: 0.103,inactive: -0.121,inactive: 0.008,inactive: -0.161
LTV1 (UniProt Q96GA3),inactive: 0.008,inactive: 0.001,inactive: 0.019,inactive: 0.041,inactive: -0.015
MAP4K2 (UniProt Q12851),inactive: 0.03,inactive: -0.263,inactive: 0.064,inactive: -0.104,inactive: 0.15
MAST2 (UniProt Q6P0Q8),inactive: 0.062,inactive: -0.166,inactive: 0.055,inactive: -0.013,inactive: -0.189
MADD isoform 4 (UniProt Q8WXG6),inactive: 0.019,inactive: -0.192,inactive: -0.011,inactive: 0.003,inactive: 0.039
MAP1LC3B2 (UniProt A6NCE7),inactive: 0.007,inactive: 0.135,inactive: 0.016,inactive: -0.02,inactive: 0.017
MAN1A1 (UniProt P33908),inactive: -0.062,inactive: 0.064,inactive: -0.012,inactive: -0.028,inactive: 0

Target,log2 fold change [1],log2 fold change (vorinostat),log2 fold change (silmitasertib),log2 fold change [2],log2 fold change (entospletinib)
MARS2 (UniProt Q96GW9),inactive: 0.002,inactive: -0.146,inactive: -0.009,inactive: 0.019,inactive: 0.022
MAP2K7 isoform 4 (UniProt O14733),inactive: 0.009,active: -1.09,inactive: 0.167,inactive: -0.051,inactive: -0.047
MAP7D3 (UniProt Q8IWC1),inactive: 0.098,inactive: 0.037,inactive: 0.059,inactive: -0.046,inactive: -0.013
LYPLA1 (UniProt O75608),inactive: -0.084,inactive: 0.085,inactive: 0.002,inactive: 0.008,inactive: 0.024
MAPK11 (UniProt Q15759),,inactive: -0.463,inactive: -0.076,inactive: 0.184,
MAPKAP1 (UniProt Q9BPZ7),,inactive: -0.111,inactive: 0.187,inactive: -0.018,inactive: -0.157
LTBR (UniProt P36941),,inactive: 0.123,inactive: -0.153,inactive: -0.139,
MAP4K4 isoform 6 (UniProt O95819),,inactive: -0.134,inactive: 0.02,,inactive: 0.094
MAPK7 (UniProt Q13164),,inactive: -0.102,inactive: 0,inactive: -0.01,inactive: 0.029
MAP4K3 (UniProt Q8IVH8),,,,inactive: -0.038,
MARCHF3 (UniProt Q86UD3),inactive: 0.007,,,,inactive: -0.005
"LYPLA1, A0A087X1K9",inactive: 0.026,,,inactive: -0.01,inactive: -0.365
MARK1 (UniProt Q9P0L2),inactive: 0.017,inactive: -0.225,active: 0.485,inactive: -0.059,inactive: 0.049
MANBAL (UniProt Q9NQG1),,inactive: 0.113,inactive: -0.032,,inactive: -0.01
MAFG (UniProt O15525),,inactive: 0.069,inactive: -0.001,inactive: -0.074,inactive: -0.054
MAGI3 isoform 1 (UniProt Q5TCQ9),inactive: 0.076,inactive: -0.116,inactive: 0.012,,inactive: -0.045
MAPK12 (UniProt P53778),inactive: 0,inactive: 0.181,inactive: -0.027,inactive: -0.067,inactive: -0.027
MACF1 isoform 3 (UniProt Q9UPN3),inactive: -0.004,inactive: -0.062,inactive: 0.008,inactive: -0.005,inactive: -0.01
LUC7L3 (UniProt O95232),inactive: 0.031,inactive: 0.062,inactive: -0.076,inactive: -0.034,inactive: 0.005
LZTS1 (UniProt Q9Y250),inactive: 0.04,inactive: 0.101,inactive: -0.143,inactive: 0.121,inactive: 0.07
MACF1 (UniProt E9PLY5),,,,inactive: -0.064,

# Single records, as listed above.
# MAP3K3 isoform 2 (UniProt Q99759) is listed as log2 fold change [1]: inactive: 0.116; log2 fold change (vorinostat): inactive: -0.011; log2 fold change (silmitasertib): inactive: -0.142; log2 fold change [2]: inactive: -0.035; log2 fold change (entospletinib): inactive: 0.066
# MAGEB1 (UniProt P43366) is listed as log2 fold change [1]: inactive: 0.017; log2 fold change (vorinostat): inactive: -0.021; log2 fold change (silmitasertib): inactive: 0.032; log2 fold change [2]: inactive: -0.006; log2 fold change (entospletinib): inactive: 0.034

# The listing continues:

Target,log2 fold change [1],log2 fold change (vorinostat),log2 fold change (silmitasertib),log2 fold change [2],log2 fold change (entospletinib)
MAP4K4 isoform 3 (UniProt O95819),inactive: 0.041,inactive: -0.145,inactive: 0.045,,inactive: 0.178
MAGEB2 (UniProt O15479),inactive: 0.044,inactive: -0.019,inactive: -0.006,inactive: 0.005,inactive: 0.03
MAP3K4 isoform 2 (UniProt Q9Y6R4),,,,inactive: 0.034,
MAGEA2 (UniProt P43356),,,,,inactive: -0.06
MAGEA12 (UniProt P43365),inactive: 0.006,,,inactive: 0.012,inactive: -0.077
LTBP1 isoform 4 (UniProt Q14766),,inactive: -0.038,inactive: -0.097,,inactive: 0.093
LTBP4 isoform 2 (UniProt Q8N2S1),,,,inactive: -0.031,
LTBP4 (UniProt Q8N2S1),,inactive: 0.039,inactive: -0.038,inactive: 0.017,inactive: 0
MAP4K5 (UniProt Q9Y4K4),inactive: -0.072,inactive: -0.218,inactive: -0.008,inactive: -0.07,inactive: 0
MAST3 (UniProt O60307),,inactive: 0.168,inactive: 0.078,,inactive: -0.056
MAGEA1 (UniProt P43355),inactive: -0.058,inactive: -0.074,inactive: 0.042,inactive: 0.022,inactive: 0.04
LYL1 (UniProt P12980),,inactive: -0.466,inactive: 0.081,inactive: 0.03,
MAGEF1 (UniProt Q9HAY2),,inactive: 0.023,inactive: -0.183,,
MAPK3 (UniProt P27361),inactive: -0.016,inactive: -0.005,inactive: 0.02,inactive: 0.038,inactive: -0.013
MAP3K5 (UniProt Q99683),inactive: -0.216,,,inactive: 0.125,inactive: -0.145
MAP3K6 (UniProt O95382),inactive: -0.088,,,,inactive: -0.043
LY6E (UniProt Q16553),inactive: 0.165,,,,inactive: -0.013
MAGEA3 (UniProt P43357),inactive: 0.019,,,inactive: -0.038,inactive: -0.09
MAPRE2 (UniProt Q15555),inactive: -0.063,inactive: 0.045,inactive: -0.051,inactive: -0.016,inactive: 0.038
MAN2B2 (UniProt Q9Y2E5),,inactive: 0.117,inactive: -0.014,inactive: -0.005,inactive: 0.019
